From the supplement of paper PMC12889115
Some of the results follow. Values are raw readings; no control value is given beside them.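 In the initial screen, polymyxin B was used at a concentration that permeabilizes Salmonella's outer membrane but not its inner membrane. Maximum growth was set by DMSO wells with or without polymyxin B. Since plates varied, data were ranked per plate, and compounds giving the lowest OD600 advanced as hits.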

Tested on: Salmonella enterica serovar Typhimurium SL1344
Assay: bacterial growth OD600 after 18 h with compound and polymyxin B; higher = more bacterial growth (less inhibition)
Settings: 50 µM, Mueller-Hinton broth

| SMILES | bacterial growth OD600 (polymyxin B 1 µg/mL) | bacterial growth OD600 (polymyxin B 0.75 µg/mL) |
| --- | --- | --- |
| CCOC(=O)C1(Cc2cccc(OC)c2)CCN(Cc2ccc(O)c(Cl)c2)CC1 | 0.555 |  |
| O=C(Cc1cccs1)N1CCCC(c2nc(-c3cccnc3)ncc2-c2ccccc2F)C1 (configuration not stated) |  | 0.003 |
| COc1ccc(CC2(CCC(=O)NCC3OCCc4ccccc43)CCC(=O)N2)c(F)c1 (configuration not stated) |  | 0.866 |
| O=C(c1csc2nc(-c3ccccc3)cn12)N1CCCCCC1 | 1.18 |  |
| CCOC(=O)CCNC(=O)N1CCCC(CNS(=O)(=O)Cc2ccccc2)C1 (configuration not stated) | 0.836 |  |
| Cn1ccnc1C(=O)C1CCCN(C(=O)c2cn(CCC3CCCCC3)nn2)C1 (configuration not stated) | 1.28 |  |
| COc1cc(CN2CCc3c(C(=O)NC(C)c4ccco4)c(OC)cc(=O)n3CC2)cc2c1OCO2 (configuration not stated) |  | 0.79 |
| O=C(C1CC=CCC1)N1CCC(C2(c3cccnc3)NC(=O)N(CCc3cccs3)C2=O)CC1 (configuration not stated) |  | 0.817 |
| CN(C)S(=O)(=O)N1CCC(C2CCN(c3ncccn3)CC2)C1 (configuration not stated) |  | 0.922 |
| Cc1cc(F)ccc1NC(=O)CCC1CCCN(Cc2nccn2C)C1 (configuration not stated) | 1.08 |  |
| O=C(Nc1ccnn1C1CCN(C(=O)CN2CCCCC2)CC1)c1ccc2c(c1)OCO2 |  | 0.908 |
| O=C(c1ccncc1)N1CCC(C2CCN(c3ncccn3)CC2)C1 (configuration not stated) |  | 0.823 |
| C[C@@H]1CN(C2CCN(c3nc4nonc4nc3NC3CCCC3)CC2)C[C@H](C)O1 | 1.07 |  |
| CC(C)c1ccc(NC2CCCN(C(=O)c3cccc4nccnc34)C2)cc1 (configuration not stated) | 1.07 |  |
| COCCN1CCCC(CNc2nc3nonc3nc2NC2CC2)C1 (configuration not stated) |  | 0.834 |
| COCCC(=O)N1CCC(C(=O)Nc2cccc(-c3cc4ccccc4[nH]3)c2)CC1 | 0.815 |  |

| SMILES | bacterial growth OD600 (polymyxin B 1 µg/mL) | bacterial growth OD600 (polymyxin B 0.75 µg/mL) |
| --- | --- | --- |
| O=C(Nc1ccnn1C1CCN(C(=O)c2ccsc2)CC1)c1ccc2c(c1)OCO2 | 0.98 |  |
| O=C(CCN1CCCO1)N1CCc2[nH]nc(-c3ccc(Cl)cc3)c2C1 |  | 0.899 |
| CN(C)S(=O)(=O)NCc1cccnc1Oc1ccc(F)c(F)c1 | 0.849 |  |
| COc1ccc(C(=O)C2CCCN(Cc3cnc(SC)nc3)C2)c(OC)c1 (configuration not stated) | 0.848 |  |
| CC(C)N1CCC(N2CCCC(C(=O)NCc3cn4ccsc4n3)C2)CC1 (configuration not stated) |  | 1 |
| CCOC(=O)C1CCN(Cc2nc(Cc3ccccc3Cl)no2)CC1 | 0.925 |  |
| CCC1CN(c2ccc(C(=O)NCCCc3ccccn3)cn2)CCN1C (configuration not stated) | 0.81 |  |
| Cc1ccn(CC(=O)N2CCCC(C(=O)c3ccc(-c4ccccc4)cc3)C2)n1 (configuration not stated) | 0.002 |  |
| CN(C)CC(=O)NCc1cccnc1Oc1cccc(C(F)(F)F)c1 |  | 0.868 |
| COCCN(Cc1cn(-c2ccccc2)nc1-c1cccc(OC)c1)C(C)C | 0.964 |  |
| CN(CCc1ccccc1)C(=O)c1cc(Cn2cnc3ccccc32)[nH]n1 | 0.843 |  |
| O=C(CCN1Cc2ccccc2OC(c2ccccc2)C1)N1CCC(Oc2cccnc2)CC1 (configuration not stated) |  | 0.006 |
| COc1ccccc1CNC(=O)c1c(OC)cc(=O)n2c1CCN(Cc1ccccc1Cl)CC2 |  | 0.82 |
| CCC(COC)NCc1cn(-c2ccc(OC)cc2)nc1-c1cccc(F)c1 (configuration not stated) | 0.739 |  |
| COc1cccc(CC(C2CCN(C(=O)c3ccc(C)c(C)c3)CC2)N(C)C(=O)CC(C)C)c1 (configuration not stated) |  | 0.002 |
| O=C(Cc1ccccc1Cl)N1CCC(C2(c3ccccn3)NC(=O)N(CC3CCCO3)C2=O)CC1 (configuration not stated) |  | 0.867 |

Single records, as listed above:
O=C(CCN1Cc2ccccc2OC(c2ccccc2)C1)N1CCC(Oc2cccnc2)CC1 (configuration not stated) is entered as bacterial growth OD600 (polymyxin B 0.75 µg/mL): 0.006
CN(C)CC(=O)NCc1cccnc1Oc1cccc(C(F)(F)F)c1 is entered as bacterial growth OD600 (polymyxin B 0.75 µg/mL): 0.868
